Assay results: paper doi:10.1101/2020.06.10.144725 (bioRxiv, 2020)

Protein sequences, listed by entry. Tags and fused reporters are not part of them. Residues count along the entry.
UniProt O75197, residues 32-1615: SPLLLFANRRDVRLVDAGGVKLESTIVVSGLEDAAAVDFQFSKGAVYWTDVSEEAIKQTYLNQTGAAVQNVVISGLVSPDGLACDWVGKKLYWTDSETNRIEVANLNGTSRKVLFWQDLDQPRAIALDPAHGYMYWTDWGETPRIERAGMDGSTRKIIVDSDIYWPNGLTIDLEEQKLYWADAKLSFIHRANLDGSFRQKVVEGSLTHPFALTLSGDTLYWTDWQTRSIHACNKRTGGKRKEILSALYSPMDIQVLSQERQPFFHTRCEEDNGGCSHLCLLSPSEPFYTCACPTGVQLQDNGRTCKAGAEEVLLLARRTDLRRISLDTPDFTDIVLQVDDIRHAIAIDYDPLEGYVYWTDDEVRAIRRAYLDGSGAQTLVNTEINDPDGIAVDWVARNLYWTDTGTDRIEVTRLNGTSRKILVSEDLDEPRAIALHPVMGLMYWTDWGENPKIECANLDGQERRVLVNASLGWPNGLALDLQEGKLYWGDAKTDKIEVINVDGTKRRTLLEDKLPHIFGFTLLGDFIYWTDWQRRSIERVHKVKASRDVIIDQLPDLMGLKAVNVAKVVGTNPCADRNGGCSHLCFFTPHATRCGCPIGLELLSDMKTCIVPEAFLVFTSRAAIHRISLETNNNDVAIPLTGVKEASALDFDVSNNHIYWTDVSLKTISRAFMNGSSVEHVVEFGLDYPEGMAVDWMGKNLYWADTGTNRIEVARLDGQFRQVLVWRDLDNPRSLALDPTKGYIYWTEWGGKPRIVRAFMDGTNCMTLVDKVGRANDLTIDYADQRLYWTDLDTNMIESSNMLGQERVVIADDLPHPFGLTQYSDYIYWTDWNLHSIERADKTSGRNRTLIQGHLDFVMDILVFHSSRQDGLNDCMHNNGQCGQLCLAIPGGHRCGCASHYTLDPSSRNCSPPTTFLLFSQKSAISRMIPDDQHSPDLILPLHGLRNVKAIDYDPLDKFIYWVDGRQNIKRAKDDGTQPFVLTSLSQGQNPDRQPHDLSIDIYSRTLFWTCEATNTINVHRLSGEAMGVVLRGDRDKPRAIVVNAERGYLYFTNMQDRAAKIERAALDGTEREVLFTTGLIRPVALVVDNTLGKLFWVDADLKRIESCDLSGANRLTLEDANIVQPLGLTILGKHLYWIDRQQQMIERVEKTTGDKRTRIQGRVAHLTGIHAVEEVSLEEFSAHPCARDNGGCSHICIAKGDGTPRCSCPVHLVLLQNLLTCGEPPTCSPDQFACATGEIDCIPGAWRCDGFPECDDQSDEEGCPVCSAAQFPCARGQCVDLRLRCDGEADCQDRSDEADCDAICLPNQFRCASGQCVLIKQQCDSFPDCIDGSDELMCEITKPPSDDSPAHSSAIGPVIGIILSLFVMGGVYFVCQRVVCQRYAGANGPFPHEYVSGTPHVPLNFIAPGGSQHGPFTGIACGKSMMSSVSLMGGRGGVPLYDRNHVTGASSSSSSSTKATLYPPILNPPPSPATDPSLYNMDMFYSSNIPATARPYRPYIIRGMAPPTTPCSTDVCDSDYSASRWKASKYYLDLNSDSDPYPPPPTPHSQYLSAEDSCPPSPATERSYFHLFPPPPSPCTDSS
UniProt P35222: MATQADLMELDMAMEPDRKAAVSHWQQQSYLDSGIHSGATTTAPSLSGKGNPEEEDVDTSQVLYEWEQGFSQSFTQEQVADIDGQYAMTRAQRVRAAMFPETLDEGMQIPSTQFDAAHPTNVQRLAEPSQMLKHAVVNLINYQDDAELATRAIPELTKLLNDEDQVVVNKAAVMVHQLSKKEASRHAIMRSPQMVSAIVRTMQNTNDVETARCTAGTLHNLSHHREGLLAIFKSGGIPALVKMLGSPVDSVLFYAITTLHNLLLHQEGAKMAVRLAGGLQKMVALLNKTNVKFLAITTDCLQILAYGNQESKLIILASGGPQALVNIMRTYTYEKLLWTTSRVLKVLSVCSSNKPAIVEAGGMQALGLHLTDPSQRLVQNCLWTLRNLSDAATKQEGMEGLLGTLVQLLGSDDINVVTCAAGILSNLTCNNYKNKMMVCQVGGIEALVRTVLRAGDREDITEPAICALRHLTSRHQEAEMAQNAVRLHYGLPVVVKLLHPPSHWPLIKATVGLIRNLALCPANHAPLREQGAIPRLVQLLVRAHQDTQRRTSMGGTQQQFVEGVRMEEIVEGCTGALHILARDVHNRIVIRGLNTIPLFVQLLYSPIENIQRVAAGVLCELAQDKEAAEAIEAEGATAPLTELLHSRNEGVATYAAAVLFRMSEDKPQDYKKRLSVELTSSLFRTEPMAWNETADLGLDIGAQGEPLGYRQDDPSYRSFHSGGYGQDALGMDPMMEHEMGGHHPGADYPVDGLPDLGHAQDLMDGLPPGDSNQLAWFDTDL
UniProt Q04721, residues 26-2471: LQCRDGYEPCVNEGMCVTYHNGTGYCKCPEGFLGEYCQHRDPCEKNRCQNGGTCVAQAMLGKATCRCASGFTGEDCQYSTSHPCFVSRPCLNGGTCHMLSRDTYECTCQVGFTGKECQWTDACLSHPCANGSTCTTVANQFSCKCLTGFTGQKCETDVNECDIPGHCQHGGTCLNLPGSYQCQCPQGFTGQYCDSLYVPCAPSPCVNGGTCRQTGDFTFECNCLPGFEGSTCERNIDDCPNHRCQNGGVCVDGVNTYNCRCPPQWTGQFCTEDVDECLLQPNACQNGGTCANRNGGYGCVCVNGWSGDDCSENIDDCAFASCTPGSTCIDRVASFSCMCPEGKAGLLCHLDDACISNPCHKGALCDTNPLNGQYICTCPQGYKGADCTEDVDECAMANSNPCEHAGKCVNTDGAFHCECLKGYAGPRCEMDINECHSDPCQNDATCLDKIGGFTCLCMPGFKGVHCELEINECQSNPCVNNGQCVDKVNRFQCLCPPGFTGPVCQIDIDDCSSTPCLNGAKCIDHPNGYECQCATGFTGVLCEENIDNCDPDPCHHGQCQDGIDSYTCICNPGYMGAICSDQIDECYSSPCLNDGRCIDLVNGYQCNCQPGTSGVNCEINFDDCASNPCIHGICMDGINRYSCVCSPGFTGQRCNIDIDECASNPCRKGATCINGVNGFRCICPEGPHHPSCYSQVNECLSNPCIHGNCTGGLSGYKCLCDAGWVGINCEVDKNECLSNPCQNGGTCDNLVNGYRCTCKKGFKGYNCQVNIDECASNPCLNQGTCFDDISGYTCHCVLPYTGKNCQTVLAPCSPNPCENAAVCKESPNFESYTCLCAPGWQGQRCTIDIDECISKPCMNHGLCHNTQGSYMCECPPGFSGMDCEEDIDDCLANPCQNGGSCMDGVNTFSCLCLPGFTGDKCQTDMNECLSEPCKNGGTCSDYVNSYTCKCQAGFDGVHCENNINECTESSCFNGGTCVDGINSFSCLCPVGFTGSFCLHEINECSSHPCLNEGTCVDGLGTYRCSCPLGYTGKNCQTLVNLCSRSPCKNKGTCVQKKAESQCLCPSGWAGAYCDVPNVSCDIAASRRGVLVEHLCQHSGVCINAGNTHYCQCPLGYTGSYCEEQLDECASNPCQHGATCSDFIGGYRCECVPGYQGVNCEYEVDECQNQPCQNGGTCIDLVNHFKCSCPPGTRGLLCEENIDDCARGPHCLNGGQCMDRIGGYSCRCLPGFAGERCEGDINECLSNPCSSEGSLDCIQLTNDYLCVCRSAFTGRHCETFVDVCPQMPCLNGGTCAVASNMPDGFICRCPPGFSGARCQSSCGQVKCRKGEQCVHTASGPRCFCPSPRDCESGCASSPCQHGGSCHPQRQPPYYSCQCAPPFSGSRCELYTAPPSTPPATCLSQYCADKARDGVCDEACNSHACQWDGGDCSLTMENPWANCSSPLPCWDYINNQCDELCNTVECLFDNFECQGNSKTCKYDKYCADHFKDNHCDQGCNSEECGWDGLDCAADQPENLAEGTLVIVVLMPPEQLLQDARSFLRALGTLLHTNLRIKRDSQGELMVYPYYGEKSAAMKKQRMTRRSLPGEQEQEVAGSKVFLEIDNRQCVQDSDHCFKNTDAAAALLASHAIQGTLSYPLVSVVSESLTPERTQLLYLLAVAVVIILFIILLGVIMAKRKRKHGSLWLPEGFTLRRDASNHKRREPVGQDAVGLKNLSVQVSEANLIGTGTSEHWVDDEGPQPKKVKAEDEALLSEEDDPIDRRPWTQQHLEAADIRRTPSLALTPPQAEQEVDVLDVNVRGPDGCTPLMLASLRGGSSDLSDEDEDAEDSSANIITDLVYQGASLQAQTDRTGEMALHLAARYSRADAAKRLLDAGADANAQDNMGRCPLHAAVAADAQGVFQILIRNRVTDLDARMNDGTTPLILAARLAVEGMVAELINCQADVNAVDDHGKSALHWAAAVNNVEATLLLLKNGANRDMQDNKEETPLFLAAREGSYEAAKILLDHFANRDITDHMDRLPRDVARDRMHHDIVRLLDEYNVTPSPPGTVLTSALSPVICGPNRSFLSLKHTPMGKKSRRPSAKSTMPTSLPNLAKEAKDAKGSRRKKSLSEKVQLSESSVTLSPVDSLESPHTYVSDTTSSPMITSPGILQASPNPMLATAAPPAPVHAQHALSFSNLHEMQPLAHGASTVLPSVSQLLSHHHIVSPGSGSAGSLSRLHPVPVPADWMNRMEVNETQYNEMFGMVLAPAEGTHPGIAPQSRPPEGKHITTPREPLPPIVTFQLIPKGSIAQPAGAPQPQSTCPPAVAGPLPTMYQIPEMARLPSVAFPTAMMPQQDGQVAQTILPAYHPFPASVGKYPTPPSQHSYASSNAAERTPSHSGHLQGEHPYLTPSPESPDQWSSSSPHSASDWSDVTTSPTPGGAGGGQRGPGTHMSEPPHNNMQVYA
UniProt O14641: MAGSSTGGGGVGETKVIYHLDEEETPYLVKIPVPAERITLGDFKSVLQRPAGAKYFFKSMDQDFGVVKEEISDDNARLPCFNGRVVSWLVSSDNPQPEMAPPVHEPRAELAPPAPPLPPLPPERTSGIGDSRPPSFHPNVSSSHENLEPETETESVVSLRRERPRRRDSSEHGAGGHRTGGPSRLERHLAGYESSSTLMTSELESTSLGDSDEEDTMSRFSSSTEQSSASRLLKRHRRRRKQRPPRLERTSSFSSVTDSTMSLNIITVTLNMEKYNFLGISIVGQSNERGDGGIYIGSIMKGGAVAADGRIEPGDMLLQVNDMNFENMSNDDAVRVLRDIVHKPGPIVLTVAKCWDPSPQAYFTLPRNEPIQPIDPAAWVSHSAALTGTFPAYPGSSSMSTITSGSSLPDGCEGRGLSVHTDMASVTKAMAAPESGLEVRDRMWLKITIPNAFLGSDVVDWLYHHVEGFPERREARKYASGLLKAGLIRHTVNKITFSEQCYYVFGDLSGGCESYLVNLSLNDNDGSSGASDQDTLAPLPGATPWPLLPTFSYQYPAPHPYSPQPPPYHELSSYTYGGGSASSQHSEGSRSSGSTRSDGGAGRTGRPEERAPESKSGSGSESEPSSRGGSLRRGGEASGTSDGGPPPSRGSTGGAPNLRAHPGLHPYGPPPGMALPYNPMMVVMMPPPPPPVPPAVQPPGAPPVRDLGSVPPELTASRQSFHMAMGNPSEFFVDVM
UniProt Q01974, residues 34-943: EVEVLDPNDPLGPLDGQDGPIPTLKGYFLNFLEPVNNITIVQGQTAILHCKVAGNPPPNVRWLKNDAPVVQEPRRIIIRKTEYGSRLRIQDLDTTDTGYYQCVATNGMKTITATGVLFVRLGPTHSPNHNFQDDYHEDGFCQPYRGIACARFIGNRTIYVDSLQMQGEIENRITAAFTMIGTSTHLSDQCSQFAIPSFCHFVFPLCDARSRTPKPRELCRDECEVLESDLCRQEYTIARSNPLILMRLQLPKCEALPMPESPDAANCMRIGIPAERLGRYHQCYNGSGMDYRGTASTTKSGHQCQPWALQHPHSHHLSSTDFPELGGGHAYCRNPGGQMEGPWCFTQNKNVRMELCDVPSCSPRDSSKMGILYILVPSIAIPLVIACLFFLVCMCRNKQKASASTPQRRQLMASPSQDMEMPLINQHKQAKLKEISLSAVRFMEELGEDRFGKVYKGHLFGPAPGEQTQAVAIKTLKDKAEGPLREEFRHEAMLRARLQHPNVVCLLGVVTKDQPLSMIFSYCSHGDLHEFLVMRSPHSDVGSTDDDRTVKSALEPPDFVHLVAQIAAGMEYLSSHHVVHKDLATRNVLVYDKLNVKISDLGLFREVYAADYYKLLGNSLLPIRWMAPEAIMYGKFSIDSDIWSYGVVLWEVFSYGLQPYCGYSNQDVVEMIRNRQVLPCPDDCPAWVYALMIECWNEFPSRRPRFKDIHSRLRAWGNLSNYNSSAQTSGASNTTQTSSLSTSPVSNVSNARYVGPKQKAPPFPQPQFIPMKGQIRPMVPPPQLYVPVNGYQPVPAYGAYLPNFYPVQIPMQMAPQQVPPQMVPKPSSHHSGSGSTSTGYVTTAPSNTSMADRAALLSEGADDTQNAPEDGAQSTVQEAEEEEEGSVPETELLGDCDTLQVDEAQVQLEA

How the values were obtained:
[1] = molecular target: T1, Nkd1-BirA* (wild type) (murine) (UniProt Q99MH6); experiment: proximity labelling
T1 sequence: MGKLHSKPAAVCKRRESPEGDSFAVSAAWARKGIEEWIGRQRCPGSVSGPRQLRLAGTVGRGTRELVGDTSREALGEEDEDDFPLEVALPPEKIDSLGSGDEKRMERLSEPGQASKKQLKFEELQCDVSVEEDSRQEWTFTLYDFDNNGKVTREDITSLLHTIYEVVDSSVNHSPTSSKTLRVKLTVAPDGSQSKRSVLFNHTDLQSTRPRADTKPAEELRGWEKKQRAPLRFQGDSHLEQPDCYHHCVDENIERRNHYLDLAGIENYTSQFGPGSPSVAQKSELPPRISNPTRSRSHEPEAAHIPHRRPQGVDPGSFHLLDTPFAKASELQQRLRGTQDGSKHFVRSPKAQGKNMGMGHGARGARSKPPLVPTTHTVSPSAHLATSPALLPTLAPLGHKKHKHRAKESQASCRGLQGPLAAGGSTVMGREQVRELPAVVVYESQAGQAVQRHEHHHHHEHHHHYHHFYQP

[2] = molecular target: T1, Nkd1-BirA* (wild type) (murine); experiment: proximity labelling; remark: listed apart in the source

For “p62 autophagy receptor (endogenous) (from UniProt Q13501 1-440)”, the binding [1] was “binds” and the binding [2] was “binds”.

With “LRP5 (endogenous) (from UniProt O75197 32-1615) (receptor)” the binding [1] was “binds”.

For “β-catenin (endogenous) (from UniProt P35222 1-781)”, the binding [1] was “binds”.

For “Axin1 (endogenous) (from UniProt O15169 1-862)”, the binding [1] was “binds”.

In the case of “Notch1 (endogenous) (from UniProt P46531) (receptor)”, the binding [1] is reported as “binds”.

In the case of “CELSR1 (endogenous) (from UniProt Q9NYQ6 21-3014)”, the binding [1] is reported as “binds”.

“Notch2 (endogenous) (from UniProt Q04721) (receptor)” was tested, and the binding [1] was “binds”.

For “DVL2 (endogenous) (from UniProt O14641 1-736)”, the binding [1] was “binds”.

“ROR2 (endogenous) (from UniProt Q01974 34-943) (receptor)” was tested, and the binding [1] was “binds”.

B1: DVL1 (endogenous) (protein, UniProt O14640 1-695)
chain: MAETKIIYHMDEEETPYLVKLPVAPERVTLADFKNVLSNRPVHAYKFFFKSMDQDFGVVKEEIFDDNAKLPCFNGRVVSWLVLAEGAHSDAGSQGTDSHTDLPPPLERTGGIGDSRPPSFHPNVASSRDGMDNETGTESMVSHRRERARRRNREEAARTNGHPRGDRRRDVGLPPDSASTALSSELESSSFVDSDEDGSTSRLSSSTEQSTSSRLIRKHKRRRRKQRLRQADRASSFSSITDSTMSLNIVTVTLNMERHHFLGISIVGQSNDRGDGGIYIGSIMKGGAVAADGRIEPGDMLLQVNDVNFENMSNDDAVRVLREIVSQTGPISLTVAKCWDPTPRSYFTVPRADPVRPIDPAAWLSHTAALTGALPRYGTSPCSSAVTRTSSSSLTSSVPGAPQLEEAPLTVKSDMSAVVRVMQLPDSGLEIRDRMWLKITIANAVIGADVVDWLYTHVEGFKERREARKYASSLLKHGFLRHTVNKITFSEQCYYVFGDLCSNLATLNLNSGSSGTSDQDTLAPLPHPAAPWPLGQGYPYQYPGPPPCFPPAYQDPGFSYGSGSTGSQQSEGSKSSGSTRSSRRAPGREKERRAAGAGGSGSESDHTAPSGVGSSWRERPAGQLSRGSSPRSQASATAPGLPPPHPTTKAYTVVGGPPGGPPVRELAAVPPELTGSRQSFQKAMGNPCEFFVDIM
B1 was tested, and the binding [1] was “binds”.

B2: AMER1 (endogenous) (protein, UniProt Q5JTC6 1-1135)
chain: METQKDEAAQAKGAAASGSTREQTAEKGAKNKAAEATEGPTSEPSSSGPGRLKKTAMKLFGGKKGICTLPSFFGGGRSKGSGKGSSKKGLSKSKTHDGLSEAAHGPEDVVSEGTGFSLPLPELPCQFPSSQSAHGALETGSRCKTSVAGATEKAVAEKFPSMPKPKKGLKGFFSSIRRHRKSKVTGAEQSEPGAKGPERVRARPHEHVSSAPQVPCFEETFQAPRKENANPQDAPGPKVSPTPEPSPPATEKMACKDPEKPMEACASAHVQPKPAPEASSLEEPHSPETGEKVVAGEVNPPNGPVGDPLSLLFGDVTSLKSFDSLTGCGDIIAEQDMDSMTDSMASGGQRANRDGTKRSSCLVTYQGGGEEMALPDDDDEEEEEEEEVELEEEEEEVKEEEEDDDLEYLWETAQMYPRPNMNLGYHPTTSPGHHGYMLLDPVRSYPGLAPGELLTPQSDQQESAPNSDEGYYDSTTPGFEDDSGEALGLVRRDCLPRDSYSGDALYEFYEPDDSLENSPPGDDCLYDLHGRSSEMFDPFLNFEPFLSSRPPGAMETEEERLVTIQKQLLYWELRREQLEAQEARAREAHAREAHAREAYTREAYGREAYAREAHTWEAHGREARTREAQAREVRCRETQVRETQARQEKPVLEYQMRPLGPSVMGLAAGVSGTSQISHRGITSAFPTTASSEPDWRDFRPLEKRYEGTCSKKDQSTCLMQLFQSDAMFEPDMQEANFGGSPRRAYPTYSPPEDPEEEEVEKEGNATVSFSQALVEFTSNGNLFSSMSCSSDSDSSFTQNLPELPPMVTFDIADVERDGEGKCEENPEFHNDEDLAASLEAFELGYYHKHAFNNYHSRFYQGLPWGVSSLPRYLGLPGLHPRPPPAAMALNRRSRSLDTAETLEMELSNSHLVQGYLESDELQAQQEDSDEEDEEEEEGEWSRDSPLSLYTEPPGAYDWPAWAPCPLPVGPGPAWISPNQLDRPSSQSPYRQATCCIPPMTMSISLSVPESRAPGESGPQLARPSHLHLPMGPCYNLQPQASQSMRARPRDVLLPVDEPSCSSSSGGFSPSPLPQAKPVGITHGIPQLPRVRPEHPQPQPTHYGPSSLDLSKERAEQGASLATSYSSTAMNGNLAK
In the case of B2, the binding [1] is reported as “binds”.

B3: VANGL1 (endogenous) (protein, UniProt Q8TAA9 1-524)
chain: MDTESTYSGYSYYSSHSKKSHRQGERTRERHKSPRNKDGRGSEKSVTIQPPTGEPLLGNDSTRTEEVQDDNWGETTTAITGTSEHSISQEDIARISKDMEDSVGLDCKRYLGLTVASFLGLLVFLTPIAFILLPPILWRDELEPCGTICEGLFISMAFKLLILLIGTWALFFRKRRADMPRVFVFRALLLVLIFLFVVSYWLFYGVRILDSRDRNYQGIVQYAVSLVDALLFIHYLAIVLLELRQLQPMFTLQVVRSTDGESRFYSLGHLSIQRAALVVLENYYKDFTIYNPNLLTASKFRAAKHMAGLKVYNVDGPSNNATGQSRAMIAAAARRRDSSHNELYYEEAEHERRVKKRKARLVVAVEEAFIHIQRLQAEEQQKAPGEVMDPREAAQAIFPSMARALQKYLRITRQQNYHSMESILQHLAFCITNGMTPKAFLERYLSAGPTLQYDKDRWLSTQWRLVSDEAVTNGLRDGIVFVLKCLDFSLVVNVKKIPFIILSEEFIDPKSHKFVLRLQSETSV
For B3, the binding [1] was “binds”.

Where two headings read alike, the source gives them in different places. Results are given in words; binding and its absence hold for the method and conditions named. In cells and extracts the contact can be indirect. A yes stands for co-enrichment or nearness to the bait. Other partners may have been found.
